Test results taken from the supplement of paper PMC9938546.
Where a name gives a salt, the structure may show the parent alone. This is one part of the list. Baselines shift from plate to plate; read single values as rough.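 HCT116-GFP is a human colorectal cancer cell line that carries a KRAS mutation, is microsatellite-unstable and always makes green fluorescent protein; the immune cells came from healthy donors. Live-cell imaging of the green signal stood in for cancer cell survival, and activated immune cells alone cut survival to about half.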

These compounds were tested on HCT116-GFP (assay: HCT116-GFP viability (GFP intensity) relative to untreated HCT116-GFP monoculture control, co-culture with activated PBMCs; higher = less cancer cell killing). Settings: culture: co-culture with anti-CD3/IL2 activated PBMCs 1:1; 10 µM; 72 h.

Row | Structure (SMILES) | HCT116-GFP viability [%]
1 | COC(=O)Nc1nc2cc(C(=O)c3ccccc3)ccc2[nH]1 [Mebendazole] | 3.01
2 | Cc1cc2c(cc1S(N)(=O)=O)S(=O)(=O)CCC2 [Meticrane] | 45.5
3 | NCCNCCNCCNCCN [Tetraethylenepentamine pentahydrochloride] | 77.2
4 | Cc1onc(-c2c(Cl)cccc2Cl)c1C(=O)N[C@@H]1C(=O)N2[C@@H]1SC(C)(C)[C@@H]2C(=O)O [Dicloxacillin sodium salt hydrate] | 64
5 | CN1C(C)(C)CCCC1(C)C [Pempidine tartrate] | 75.7
6 | CC[N+](C)(C)Cc1ccccc1Br [Bretylium tosylate] | 62.2
7 | C[N+](C)(C)CCCCCC[N+](C)(C)C [Hexamethonium dibromide dihydrate] | 36.1
8 | CN(C)/N=N/c1[nH]cnc1C(N)=O [Dacarbazine] | 35.4
9 | O=C(O)c1cccnc1Nc1cccc(C(F)(F)F)c1 [Niflumic acid] | 28.2
10 | COc1ccc(C(Cl)=C(c2ccc(OC)cc2)c2ccc(OC)cc2)cc1 [Chlorotrianisene] | 54
11 | Cc1oncc1C(=O)Nc1ccc(C(F)(F)F)cc1 [Leflunomide] | 50.8
12 | CCOC(=O)[C@H](CCc1ccccc1)N[C@@H](C)C(=O)N1Cc2ccccc2C[C@H]1C(=O)O [Quinapril hydrochloride] | 70.9
13 | CC(CCc1ccccc1)NCC(O)c1ccc(O)c(C(N)=O)c1 (stereo unspecified) [Labetalol hydrochloride] | 44.5
14 | NS(=O)(=O)c1cc(C(=O)O)cc(N2CCCC2)c1Oc1ccccc1 [Piretanide] | 47
15 | Cc1cc(C(C)(C)C)c(O)c(C)c1CC1=NCCN1 [Oxymetazoline hydrochloride] | 40.5
16 | CN(C)CCCN1c2ccccc2Sc2ccccc21 [Promazine hydrochloride] | 83.2
17 | COc1ccc([C@@H]2CC(=O)c3c(O)cc(O[C@@H]4O[C@H](CO[C@@H]5O[C@@H](C)[C@H](O)[C@@H](O)[C@H]5O)[C@@H](O)[C@H](O)[C@H]4O)cc3O2)cc1O [Hesperidin] | 60.7
18 | CC(C)(C(=O)O)c1ccc(C(O)CCCN2CCC(C(O)(c3ccccc3)c3ccccc3)CC2)cc1 (stereo unspecified) [Fexofenadine hydrochloride] | 19.2
19 | Cc1c(C)c2c(c(C)c1O)CCC(C)(COc1ccc(CC3SC(=O)NC3=O)cc1)O2 (stereo unspecified) [Troglitazone] | 50.8
20 | COC(c1ccccc1)(c1ccccc1)[C@H](Oc1nc(C)cc(C)n1)C(=O)O [Ambrisentan] | 35.1
21 | CC(C(=O)O)c1ccc2c(c1)Cc1cccnc1O2 (stereo unspecified) [Pranoprofen] | 80
22 | CSc1ccc2c(c1)C(N1CCN(C)CC1)Cc1ccccc1S2 (stereo unspecified) [Methiothepin maleate] | 45.6
23 | CNCCCC1c2ccccc2C=Cc2ccccc21 [Protriptyline hydrochloride] | 78.4

In a second layout: results already given
Row	Structure (SMILES)	HCT116-GFP viability [%]
1	COC(=O)Nc1nc2cc(C(=O)c3ccccc3)ccc2[nH]1 [Mebendazole]	3.01
4	Cc1onc(-c2c(Cl)cccc2Cl)c1C(=O)N[C@@H]1C(=O)N2[C@@H]1SC(C)(C)[C@@H]2C(=O)O [Dicloxacillin sodium salt hydrate]	64
6	CC[N+](C)(C)Cc1ccccc1Br [Bretylium tosylate]	62.2
7	C[N+](C)(C)CCCCCC[N+](C)(C)C [Hexamethonium dibromide dihydrate]	36.1
9	O=C(O)c1cccnc1Nc1cccc(C(F)(F)F)c1 [Niflumic acid]	28.2
10	COc1ccc(C(Cl)=C(c2ccc(OC)cc2)c2ccc(OC)cc2)cc1 [Chlorotrianisene]	54
14	NS(=O)(=O)c1cc(C(=O)O)cc(N2CCCC2)c1Oc1ccccc1 [Piretanide]	47
16	CN(C)CCCN1c2ccccc2Sc2ccccc21 [Promazine hydrochloride]	83.2
17	COc1ccc([C@@H]2CC(=O)c3c(O)cc(O[C@@H]4O[C@H](CO[C@@H]5O[C@@H](C)[C@H](O)[C@@H](O)[C@H]5O)[C@@H](O)[C@H](O)[C@H]4O)cc3O2)cc1O [Hesperidin]	60.7
18	CC(C)(C(=O)O)c1ccc(C(O)CCCN2CCC(C(O)(c3ccccc3)c3ccccc3)CC2)cc1 (stereo unspecified) [Fexofenadine hydrochloride]	19.2
19	Cc1c(C)c2c(c(C)c1O)CCC(C)(COc1ccc(CC3SC(=O)NC3=O)cc1)O2 (stereo unspecified) [Troglitazone]	50.8
21	CC(C(=O)O)c1ccc2c(c1)Cc1cccnc1O2 (stereo unspecified) [Pranoprofen]	80
22	CSc1ccc2c(c1)C(N1CCN(C)CC1)Cc1ccccc1S2 (stereo unspecified) [Methiothepin maleate]	45.6
23	CNCCCC1c2ccccc2C=Cc2ccccc21 [Protriptyline hydrochloride]	78.4

Additional results:

Row | Structure (SMILES) | HCT116-GFP viability [%]
24 | CCCCCCC[N+](CC)(CC)CCCCc1ccc(Cl)cc1 [Clofilium tosylate] | 20
25 | C[C@]12CCC(=O)C=C1CC[C@@H]1[C@@H]2[C@@H](O)C[C@@]2(C)[C@H]1CC[C@]2(O)C(=O)CO [Hydrocortisone base] | 80
26 | Oc1ncnc2[nH]ncc12 [Allopurinol] | 87.2
27 | CCCc1cc(=O)[nH]c(=S)[nH]1 [Propylthiouracil] | 39.2
28 | COc1ccc(CCN(C)CCCC(C#N)(c2ccc(OC)c(OC)c2)C(C)C)cc1OC (stereo unspecified) [Verapamil hydrochloride] | 37.5
29 | Cc1onc(-c2ccccc2)c1-c1ccc(S(N)(=O)=O)cc1 [Valdecoxib] | 35.9
30 | C[N+]1(CCCCC[N+]2(C)CCCC2)CCCC1 [Pentolinium bitartrate] | 28.2
31 | Fc1ccc(C(c2ccc(F)cc2)N2CCN(C/C=C/c3ccccc3)CC2)cc1 [Flunarizine dihydrochloride] | 46.4
32 | CCCCC(=O)O[C@H]1CC[C@H]2[C@@H]3CCc4cc(O)ccc4[C@H]3CC[C@]12C [Estradiol Valerate] | 55.4
33 | Cn1c(NCCN(CCO)CCCc2ccc([N+](=O)[O-])cc2)cc(=O)n(C)c1=O [Nifekalant] | 34.7
34 | N=C(N)c1ccc(OCCCCCOc2ccc(C(=N)N)cc2)cc1 [Pentamidine isethionate] | 23.3
35 | OCCOCCN1CCN(C2=Nc3ccccc3Sc3ccccc32)CC1 [Quetiapine hemifumarate] | 55.5
36 | CC1(C)S[C@@H]2[C@H](NC(=O)[C@H](N)c3ccc(O)cc3)C(=O)N2[C@H]1C(=O)O [Amoxicillin] | 41.7
37 | COc1cccc2c1C(=O)c1c(O)c3c(c(O)c1C2=O)C[C@@](O)(C(=O)CO)C[C@@H]3O[C@H]1C[C@H](N)[C@H](O)[C@H](C)O1 [Doxorubicin hydrochloride] | 6.06
38 | CCC(=O)O[C@@H](O[P@](=O)(CCCCc1ccccc1)CC(=O)N1C[C@H](C2CCCCC2)C[C@H]1C(=O)O)C(C)C [Fosinopril] | 33.4
39 | Nc1nc(Cl)nc2c1ncn2[C@H]1C[C@H](O)[C@@H](CO)O1 [Cladribine] | 16.7
40 | CN[C@@H]1[C@H](O[C@H]2[C@H](O[C@H]3[C@H](O)[C@@H](O)[C@H](N=C(N)N)[C@@H](O)[C@@H]3N=C(N)N)O[C@@H](C)[C@]2(O)C=O)O[C@@H](CO)[C@H](O)[C@H]1O [Streptomycin sulfate] | 48.8
41 | N=C(N)NC(=O)Cc1c(Cl)cccc1Cl [Guanfacine hydrochloride] | 22.5
42 | CC1CNc2c(cccc2S(=O)(=O)N[C@@H](CCCNC(=N)N)C(=O)N2CC[C@@H](C)C[C@@H]2C(=O)O)C1 (stereo partly specified) [Argatroban] | 47.9
43 | CN(C)CCN(Cc1ccccc1)c1ccccn1 [Tripelennamine hydrochloride] | 42.1
44 | Nc1ccn([C@@H]2O[C@H](CO)[C@@H](O)C2(F)F)c(=O)n1 [Gemcitabine] | 11.5
45 | CN1C(=O)CC(c2ccccc2)C1=O (stereo unspecified) [Phensuximide] | 45.8
46 | CC(=O)O[C@@]12CO[C@@H]1C[C@H](O)[C@@]1(C)C(=O)[C@H](O)C3=C(C)[C@@H](OC(=O)[C@H](O)[C@@H](NC(=O)OC(C)(C)C)c4ccccc4)C[C@@](O)([C@@H](OC(=O)c4ccccc4)[C@H]21)C3(C)C [Docetaxel] | 3.39
